Where a name gives a salt, the structure may show the parent alone. The list shows a part of the results. Hit calls seldom repeat between salt and free forms of one compound.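 In K562 cells expressing nanoluciferase-fused kinases, luminescence was recorded at 4 h intervals between 2 and 18 h, normalized as percent of control with DMSO at 100% and a positive control at 0%. A significant (2 sigma) signal drop marks a time point as decreased. The authors' rule for a hit is not shown and takes in more than the number of time points.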
Columns and labels:
Test in all cases: kinase-Nluc reporter destabilization hit call (1 = scored as downregulated) (binary); higher = compound decreases kinase abundance
Conditions in all cases: K562; 2-18 h
[1] = target: MAPK1 (UniProt P28482)
[2] = target: MAPK4 (UniProt P31152)
[3] = target: MAPKAPK2 (UniProt P49137)
[4] = target: MKNK1 (UniProt Q9BUB5)
[5] = target: NTRK2 (UniProt Q16620)
[6] = target: NTRK3 (UniProt Q16288)
[7] = target: PAK4 (UniProt O96013)
[8] = target: PBK (UniProt Q96KB5)
[9] = target: PDGFRB (UniProt P09619)
[10] = target: PDK1 (UniProt Q15118)

By UniProt entry, the sequences of proteins in these tests, tags left out. Where a name states a change or a piece, a line headed by the entry shows the natural chain unless it says otherwise.
UniProt P28482, whole entry: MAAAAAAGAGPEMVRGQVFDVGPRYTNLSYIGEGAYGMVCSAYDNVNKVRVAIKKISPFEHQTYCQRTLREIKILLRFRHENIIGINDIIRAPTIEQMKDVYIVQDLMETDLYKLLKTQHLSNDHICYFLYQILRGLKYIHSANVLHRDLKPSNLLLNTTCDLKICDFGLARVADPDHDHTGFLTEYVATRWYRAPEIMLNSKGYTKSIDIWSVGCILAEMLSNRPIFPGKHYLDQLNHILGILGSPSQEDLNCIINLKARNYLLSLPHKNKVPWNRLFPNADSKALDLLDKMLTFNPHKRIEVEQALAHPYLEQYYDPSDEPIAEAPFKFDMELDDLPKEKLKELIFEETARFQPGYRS
UniProt P31152, whole entry: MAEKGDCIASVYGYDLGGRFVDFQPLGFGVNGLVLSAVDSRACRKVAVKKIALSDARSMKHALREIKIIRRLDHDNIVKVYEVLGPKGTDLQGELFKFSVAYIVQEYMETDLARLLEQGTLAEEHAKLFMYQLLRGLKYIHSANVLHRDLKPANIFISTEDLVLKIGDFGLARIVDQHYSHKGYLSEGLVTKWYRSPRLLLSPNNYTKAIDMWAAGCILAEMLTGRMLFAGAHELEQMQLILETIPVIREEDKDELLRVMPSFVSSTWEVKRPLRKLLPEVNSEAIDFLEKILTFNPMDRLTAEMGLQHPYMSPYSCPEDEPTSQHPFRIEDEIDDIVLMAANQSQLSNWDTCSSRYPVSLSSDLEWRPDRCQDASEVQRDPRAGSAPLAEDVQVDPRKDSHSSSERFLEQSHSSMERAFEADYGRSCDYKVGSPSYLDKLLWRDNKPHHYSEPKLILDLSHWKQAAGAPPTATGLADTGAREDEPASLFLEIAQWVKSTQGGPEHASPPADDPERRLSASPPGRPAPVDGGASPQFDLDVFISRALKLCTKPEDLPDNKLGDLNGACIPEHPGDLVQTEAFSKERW
UniProt P49137, whole entry, looked up: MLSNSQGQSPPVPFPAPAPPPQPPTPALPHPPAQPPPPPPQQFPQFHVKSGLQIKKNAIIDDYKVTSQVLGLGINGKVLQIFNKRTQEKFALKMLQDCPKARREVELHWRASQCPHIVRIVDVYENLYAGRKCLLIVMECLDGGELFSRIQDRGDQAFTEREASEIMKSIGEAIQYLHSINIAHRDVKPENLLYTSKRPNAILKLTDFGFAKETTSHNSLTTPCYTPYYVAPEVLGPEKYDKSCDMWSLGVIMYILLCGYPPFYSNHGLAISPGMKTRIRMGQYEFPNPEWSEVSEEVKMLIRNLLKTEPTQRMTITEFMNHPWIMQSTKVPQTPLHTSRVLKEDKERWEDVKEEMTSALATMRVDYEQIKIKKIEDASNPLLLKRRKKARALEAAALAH
UniProt Q9BUB5: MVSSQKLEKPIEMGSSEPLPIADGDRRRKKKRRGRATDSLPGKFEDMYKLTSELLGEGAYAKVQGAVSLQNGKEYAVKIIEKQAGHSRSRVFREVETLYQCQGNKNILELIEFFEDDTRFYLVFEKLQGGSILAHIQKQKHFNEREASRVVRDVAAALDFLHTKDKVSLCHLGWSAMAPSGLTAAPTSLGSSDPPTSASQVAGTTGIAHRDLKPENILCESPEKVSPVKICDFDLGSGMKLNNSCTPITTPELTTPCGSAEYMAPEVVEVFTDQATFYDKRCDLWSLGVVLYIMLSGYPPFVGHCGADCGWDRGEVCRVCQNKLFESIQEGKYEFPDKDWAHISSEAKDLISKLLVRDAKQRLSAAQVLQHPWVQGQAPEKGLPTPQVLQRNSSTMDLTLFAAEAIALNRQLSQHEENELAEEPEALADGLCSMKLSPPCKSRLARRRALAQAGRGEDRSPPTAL
UniProt Q16620, whole entry, looked up: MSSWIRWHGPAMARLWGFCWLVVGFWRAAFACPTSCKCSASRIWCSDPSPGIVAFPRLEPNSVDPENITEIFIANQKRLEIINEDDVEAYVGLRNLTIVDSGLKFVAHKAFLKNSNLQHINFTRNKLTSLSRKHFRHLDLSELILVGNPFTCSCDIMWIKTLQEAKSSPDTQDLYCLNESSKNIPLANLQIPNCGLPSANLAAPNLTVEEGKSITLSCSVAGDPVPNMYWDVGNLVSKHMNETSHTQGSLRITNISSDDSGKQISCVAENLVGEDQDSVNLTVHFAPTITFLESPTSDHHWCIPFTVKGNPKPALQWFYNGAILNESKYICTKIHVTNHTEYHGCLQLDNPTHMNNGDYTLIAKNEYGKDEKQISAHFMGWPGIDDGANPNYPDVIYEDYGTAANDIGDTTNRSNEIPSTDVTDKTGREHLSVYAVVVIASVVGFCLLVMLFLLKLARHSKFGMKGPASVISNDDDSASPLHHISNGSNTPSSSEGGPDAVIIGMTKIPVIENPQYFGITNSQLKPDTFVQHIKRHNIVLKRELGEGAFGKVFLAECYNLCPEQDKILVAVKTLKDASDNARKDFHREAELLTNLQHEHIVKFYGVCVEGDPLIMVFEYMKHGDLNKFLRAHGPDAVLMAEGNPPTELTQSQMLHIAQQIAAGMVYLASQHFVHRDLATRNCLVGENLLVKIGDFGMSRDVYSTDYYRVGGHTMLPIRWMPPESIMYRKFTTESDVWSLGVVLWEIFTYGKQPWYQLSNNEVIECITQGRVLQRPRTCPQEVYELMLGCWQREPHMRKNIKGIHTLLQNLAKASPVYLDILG
UniProt Q16288, whole entry, looked up: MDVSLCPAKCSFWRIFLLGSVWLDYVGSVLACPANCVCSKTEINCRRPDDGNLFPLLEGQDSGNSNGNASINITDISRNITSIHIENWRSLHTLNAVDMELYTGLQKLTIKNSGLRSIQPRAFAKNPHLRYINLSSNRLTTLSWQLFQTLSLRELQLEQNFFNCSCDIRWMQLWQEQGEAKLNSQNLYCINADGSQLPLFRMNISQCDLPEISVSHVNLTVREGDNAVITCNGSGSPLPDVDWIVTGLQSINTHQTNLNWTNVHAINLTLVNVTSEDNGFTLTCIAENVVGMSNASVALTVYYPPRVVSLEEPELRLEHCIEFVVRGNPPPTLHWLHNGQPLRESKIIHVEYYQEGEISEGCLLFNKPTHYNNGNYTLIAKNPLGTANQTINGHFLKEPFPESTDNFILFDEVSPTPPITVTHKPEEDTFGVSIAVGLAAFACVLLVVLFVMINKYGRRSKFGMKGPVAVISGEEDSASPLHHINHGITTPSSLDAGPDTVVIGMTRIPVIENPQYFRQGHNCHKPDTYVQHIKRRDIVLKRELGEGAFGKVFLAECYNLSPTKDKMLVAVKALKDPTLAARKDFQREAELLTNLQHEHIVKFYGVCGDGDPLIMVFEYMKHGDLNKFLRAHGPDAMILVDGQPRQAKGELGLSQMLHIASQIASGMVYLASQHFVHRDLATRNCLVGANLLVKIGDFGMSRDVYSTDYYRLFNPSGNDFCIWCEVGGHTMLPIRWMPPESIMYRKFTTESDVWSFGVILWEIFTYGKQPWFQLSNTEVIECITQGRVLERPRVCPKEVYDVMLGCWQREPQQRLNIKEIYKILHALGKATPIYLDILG
UniProt O96013: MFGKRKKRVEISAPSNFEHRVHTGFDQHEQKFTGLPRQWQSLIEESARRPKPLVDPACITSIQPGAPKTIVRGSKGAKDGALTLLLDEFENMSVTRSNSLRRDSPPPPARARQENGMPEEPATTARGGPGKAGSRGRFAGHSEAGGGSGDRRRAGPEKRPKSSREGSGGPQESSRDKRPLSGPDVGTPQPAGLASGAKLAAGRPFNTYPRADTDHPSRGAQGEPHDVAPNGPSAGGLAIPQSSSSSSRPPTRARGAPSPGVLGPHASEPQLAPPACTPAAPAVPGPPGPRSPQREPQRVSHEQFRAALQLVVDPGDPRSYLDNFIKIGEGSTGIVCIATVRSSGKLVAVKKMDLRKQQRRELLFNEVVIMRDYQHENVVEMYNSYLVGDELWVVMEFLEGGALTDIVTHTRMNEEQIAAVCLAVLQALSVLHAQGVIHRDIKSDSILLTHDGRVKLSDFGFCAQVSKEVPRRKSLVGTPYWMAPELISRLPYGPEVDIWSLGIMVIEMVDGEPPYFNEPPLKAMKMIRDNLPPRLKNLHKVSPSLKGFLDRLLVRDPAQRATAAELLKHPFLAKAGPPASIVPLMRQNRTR
UniProt Q96KB5: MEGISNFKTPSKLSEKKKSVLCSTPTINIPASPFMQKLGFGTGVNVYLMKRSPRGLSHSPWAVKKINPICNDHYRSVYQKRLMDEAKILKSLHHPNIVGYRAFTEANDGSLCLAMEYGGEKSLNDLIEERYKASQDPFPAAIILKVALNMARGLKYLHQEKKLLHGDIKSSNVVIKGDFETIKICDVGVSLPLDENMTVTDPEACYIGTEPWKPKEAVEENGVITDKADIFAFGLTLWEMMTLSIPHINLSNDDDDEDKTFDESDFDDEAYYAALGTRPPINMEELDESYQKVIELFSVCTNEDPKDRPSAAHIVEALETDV
UniProt P09619, whole entry: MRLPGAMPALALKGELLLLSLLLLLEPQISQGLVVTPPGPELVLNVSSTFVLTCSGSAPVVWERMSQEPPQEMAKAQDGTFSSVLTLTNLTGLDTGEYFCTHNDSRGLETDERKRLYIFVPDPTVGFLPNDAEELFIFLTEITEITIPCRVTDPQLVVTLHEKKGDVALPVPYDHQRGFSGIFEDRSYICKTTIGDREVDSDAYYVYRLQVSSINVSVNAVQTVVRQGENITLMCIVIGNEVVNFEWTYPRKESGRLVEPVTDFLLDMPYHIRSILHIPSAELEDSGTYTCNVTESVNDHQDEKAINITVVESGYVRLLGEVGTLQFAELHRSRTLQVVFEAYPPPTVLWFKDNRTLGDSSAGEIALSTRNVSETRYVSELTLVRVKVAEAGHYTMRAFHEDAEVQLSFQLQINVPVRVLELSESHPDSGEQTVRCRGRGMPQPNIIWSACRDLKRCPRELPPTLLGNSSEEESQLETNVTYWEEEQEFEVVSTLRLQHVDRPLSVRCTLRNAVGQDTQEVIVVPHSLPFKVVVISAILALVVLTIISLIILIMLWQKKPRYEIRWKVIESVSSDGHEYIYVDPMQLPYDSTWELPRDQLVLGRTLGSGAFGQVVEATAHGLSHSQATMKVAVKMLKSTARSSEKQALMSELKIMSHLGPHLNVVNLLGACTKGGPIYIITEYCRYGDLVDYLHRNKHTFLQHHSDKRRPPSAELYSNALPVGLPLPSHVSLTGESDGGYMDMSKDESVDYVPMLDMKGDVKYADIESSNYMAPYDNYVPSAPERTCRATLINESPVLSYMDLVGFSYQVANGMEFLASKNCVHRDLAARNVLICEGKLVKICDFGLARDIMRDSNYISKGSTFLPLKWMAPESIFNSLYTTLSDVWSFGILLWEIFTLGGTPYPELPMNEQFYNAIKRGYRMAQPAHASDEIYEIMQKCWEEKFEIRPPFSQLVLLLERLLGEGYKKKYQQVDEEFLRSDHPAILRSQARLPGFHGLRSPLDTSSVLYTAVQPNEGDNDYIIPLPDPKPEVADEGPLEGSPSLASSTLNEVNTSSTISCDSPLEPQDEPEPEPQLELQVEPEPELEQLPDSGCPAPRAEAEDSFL
UniProt Q15118, whole entry, looked up: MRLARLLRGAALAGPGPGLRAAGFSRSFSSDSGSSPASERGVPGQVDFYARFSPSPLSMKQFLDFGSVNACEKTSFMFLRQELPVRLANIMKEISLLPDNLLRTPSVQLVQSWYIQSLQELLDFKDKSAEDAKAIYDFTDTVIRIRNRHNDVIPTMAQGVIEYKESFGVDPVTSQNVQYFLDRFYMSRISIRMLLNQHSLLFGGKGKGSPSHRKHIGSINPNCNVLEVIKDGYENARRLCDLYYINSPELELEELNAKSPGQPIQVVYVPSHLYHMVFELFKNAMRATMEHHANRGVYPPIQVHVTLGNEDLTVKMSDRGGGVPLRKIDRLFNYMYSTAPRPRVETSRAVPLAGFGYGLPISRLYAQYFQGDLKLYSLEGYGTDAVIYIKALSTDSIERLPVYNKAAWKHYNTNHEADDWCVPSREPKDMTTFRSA

Measured: kinase-Nluc reporter destabilization hit call

Cc1cc(C)cc(NC(N)=Nc2ccccc2C(F)(F)F)c1 (10 µM)
inactive: [1] 0 | [2] 0 | [3] 0 | [4] 0 | [5] 0 | [6] 0 | [7] 0 | [8] 0 | [9] 0 | [10] 0

CC(Sc1nc2c(cnn2-c2cccc(Cl)c2)c(=O)[nH]1)C(N)=O (stereo not given) (10 µM)
inactive: [1] 0 | [2] 0 | [3] 0 | [4] 0 | [5] 0 | [6] 0 | [7] 0 | [8] 0 | [9] 0 | [10] 0

CCc1c[nH]c2ncnc(N3CC[C@](N)(CNC(=O)c4ccc(F)cc4F)C3)c12 (10 µM)
inactive: [1] 0 | [2] 0 | [3] 0 | [4] 0 | [5] 0 | [6] 0 | [7] 0 | [8] 0 | [9] 0 | [10] 0

O=C(Nc1cc(Cl)cc2c1[nH]c1cnccc12)c1cccnc1 (10 µM)
inactive: [1] 0 | [2] 0 | [3] 0 | [4] 0 | [5] 0 | [6] 0 | [7] 0 | [8] 0 | [9] 0 | [10] 0

COc1ccc2c3n(c(=NC(=O)c4cccnc4)nc2c1OC)CCN3 (2 µM)
inactive: [1] 0 | [2] 0 | [3] 0 | [4] 0 | [5] 0 | [6] 0 | [7] 0 | [8] 0 | [9] 0 | [10] 0

O=C(O)[C@H]1O[C@@H](Oc2cc3oc(-c4ccc(O)cc4)cc(=O)c3c(O)c2O)[C@H](O)[C@@H](O)[C@@H]1O [Scutellarin] (10 µM)
inactive: [1] 0 | [2] 0 | [3] 0 | [4] 0 | [5] 0 | [6] 0 | [7] 0 | [8] 0 | [9] 0 | [10] 0

CN1CCN(c2ccc(Nc3ncc4cc(C#N)c(=O)n(C5CCCC5)c4n3)cc2)CC1 (10 µM)
inactive: [1] 0 | [2] 0 | [3] 0 | [4] 0 | [5] 0 | [6] 0 | [7] 0 | [8] 0 | [9] 0 | [10] 0

COc1cc2ncnc(Nc3ccc(O)c(Br)c3)c2cc1OC (10 µM)
inactive: [1] 0 | [2] 0 | [3] 0 | [4] 0 | [5] 0 | [6] 0 | [7] 0 | [8] 0 | [9] 0 | [10] 0

NS(=O)(=O)c1ccc(Nc2nc(-c3cccc(-c4ccccc4)c3)c3[nH]cnc3n2)cc1 (10 µM)
inactive: [1] 0 | [2] 0 | [3] 0 | [4] 0 | [5] 0 | [6] 0 | [7] 0 | [8] 0 | [9] 0 | [10] 0

N#C/C(=C\c1ccc(O)c(O)c1)C(=O)O [Tyrphostin AG30] (10 µM)
inactive: [1] 0 | [2] 0 | [3] 0 | [4] 0 | [5] 0 | [6] 0 | [7] 0 | [8] 0 | [9] 0 | [10] 0

Cn1cc(-c2cc(Oc3cc(F)c(NC(=O)C4(C(=O)Nc5ccccc5)CC4)cc3F)ccn2)cn1 (2.5 µM)
inactive: [1] 0 | [2] 0 | [3] 0 | [4] 0 | [5] 0 | [6] 0 | [7] 0 | [8] 0 | [9] 0 | [10] 0

CC(Cc1ccc(O)c(O)c1)C(C)Cc1ccc(O)c(O)c1 (stereo not given) [Nordihydroguaiaretic acid] (2.5 µM)
inactive: [1] 0 | [2] 0 | [3] 0 | [4] 0 | [5] 0 | [6] 0 | [7] 0 | [8] 0 | [9] 0 | [10] 0

CCN(CC)CCCC(C)Nc1nc(C)cc(Nc2ccc3nc(C)cc(N)c3c2)n1 (stereo not given) (10 µM)
inactive: [1] 0 | [2] 0 | [3] 0 | [4] 0 | [5] 0 | [6] 0 | [7] 0 | [8] 0 | [9] 0 | [10] 0

COc1cc(-c2oc3cc(O)cc(O)c3c(=O)c2O)ccc1O [Isorhamnetin] (10 µM)
inactive: [1] 0 | [2] 0 | [3] 0 | [4] 0 | [5] 0 | [6] 0 | [7] 0 | [8] 0 | [9] 0 | [10] 0

CC1=C(C(=O)Nc2cc3cn[nH]c3cc2F)C(c2ccc(C(F)(F)F)cc2)CC(=O)N1 (stereo not given) (10 µM)
inactive: [1] 0 | [2] 0 | [3] 0 | [4] 0 | [5] 0 | [6] 0 | [7] 0 | [8] 0 | [9] 0 | [10] 0

C[C@H]1O[C@@H](O[C@H]2CC[C@@]3(C)[C@@H](CC[C@]4(C)[C@@H]3C=C[C@]35OC[C@@]6(CCC(C)(C)C[C@H]63)[C@H](O)C[C@]54C)[C@]2(C)CO)[C@H](O)[C@@H](O[C@@H]2O[C@H](CO)[C@@H](O)[C@H](O)[C@H]2O)[C@H]1O [Saikosaponin D] (2.5 µM)
inactive: [1] 0 | [2] 0 | [3] 0 | [4] 0 | [5] 0 | [6] 0 | [7] 0 | [8] 0 | [9] 0 | [10] 0

COc1cc(-c2cc(-c3ccc(N4CCNCC4)cc3)cnc2C)cc(OC)c1OC (10 µM)
inactive: [1] 0 | [2] 0 | [3] 0 | [4] 0 | [5] 0 | [6] 0 | [7] 0 | [8] 0 | [9] 0 | [10] 0

C=C1C(=O)[C@@]23[C@H](O)C[C@@H]4C(C)(C)C(=O)CC[C@@]4(C)[C@@H]2CC[C@@H]1[C@H]3O [Glaucocalyxin A] (2.5 µM)
inactive: [1] 0 | [2] 0 | [3] 0 | [4] 0 | [5] 0 | [6] 0 | [7] 0 | [8] 0 | [9] 0 | [10] 0

COC(=O)[C@H](CCSC)NC(=O)c1ccc(NC[C@@H](N)CS)cc1-c1ccccc1 [FTI-277 (hydrochloride)] (10 µM)
inactive: [1] 0 | [2] 0 | [3] 0 | [4] 0 | [5] 0 | [6] 0 | [7] 0 | [8] 0 | [9] 0 | [10] 0

COC(=O)/C=C/c1ccccc1 [Methyl cinnamate] (10 µM)
inactive: [1] 0 | [2] 0 | [3] 0 | [4] 0 | [5] 0 | [6] 0 | [7] 0 | [8] 0 | [9] 0 | [10] 0

COc1c(O)cc2oc(-c3ccc(O)cc3)cc(=O)c2c1O [Hispidulin] (10 µM)
inactive: [1] 0 | [2] 0 | [3] 0 | [4] 0 | [5] 0 | [6] 0 | [7] 0 | [8] 0 | [9] 0 | [10] 0

Clc1ccc(C(c2ccc(Cl)cc2)[n+]2ccn(CC(OCc3ccc(Cl)cc3Cl)c3ccc(Cl)cc3Cl)c2)cc1 (stereo not given) [Calmidazolium chloride] (2.5 µM)
inactive: [1] 0 | [2] 0 | [3] 0 | [4] 0 | [5] 0 | [6] 0 | [7] 0 | [8] 0 | [9] 0 | [10] 0

Cc1cccc(COc2cccc(/C=C3\C(=O)NN(c4ccccc4)C3=O)c2)c1 (10 µM)
inactive: [1] 0 | [2] 0 | [3] 0 | [4] 0 | [5] 0 | [6] 0 | [7] 0 | [8] 0 | [9] 0 | [10] 0

Cc1cc(-n2c(=O)ccc3c[nH]c4nccc-4c32)ccc1F (10 µM)
inactive: [1] 0 | [2] 0 | [3] 0 | [4] 0 | [5] 0 | [6] 0 | [7] 0 | [8] 0 | [9] 0 | [10] 0

CNC(=O)c1ccc2c(C(=Nc3cccc(CN(C)C)c3)c3ccccc3)c(O)[nH]c2c1 [MEK inhibitor] (10 µM)
inactive: [1] 0 | [2] 0 | [3] 0 | [4] 0 | [5] 0 | [6] 0 | [7] 0 | [8] 0 | [9] 0 | [10] 0

O=C(Nc1cccnc1)c1cc(-c2ccnc(F)c2)ccc1OCc1ccccc1 (10 µM)
inactive: [1] 0 | [2] 0 | [3] 0 | [4] 0 | [5] 0 | [6] 0 | [7] 0 | [8] 0 | [9] 0 | [10] 0

C=CC(=O)Nc1cc(Nc2nccc(-c3cn(C)c4ccccc34)n2)c(OC)cc1OCCN(C)C [Rezivertinib] (2.5 µM)
inactive: [1] 0 | [2] 0 | [3] 0 | [4] 0 | [5] 0 | [6] 0 | [7] 0 | [8] 0 | [9] 0 | [10] 0

C=CC(=O)N1CC[C@@H](Oc2nc(Nc3ccc(N4CCC(N5CCN(C)CC5)CC4)cc3)c(C(N)=O)nc2CC)C1 [Naquotinib (mesylate)] (2.5 µM)
inactive: [1] 0 | [2] 0 | [3] 0 | [4] 0 | [5] 0 | [6] 0 | [7] 0 | [8] 0 | [9] 0 | [10] 0

Sorted by heavy-atom count (rising): part of the list above.
COC(=O)/C=C/c1ccccc1 [Methyl cinnamate] (10 µM)
inactive: [1] 0 | [2] 0 | [3] 0 | [4] 0 | [5] 0 | [6] 0 | [7] 0 | [8] 0 | [9] 0 | [10] 0

C=C1C(=O)[C@@]23[C@H](O)C[C@@H]4C(C)(C)C(=O)CC[C@@]4(C)[C@@H]2CC[C@@H]1[C@H]3O [Glaucocalyxin A] (2.5 µM)
inactive: [1] 0 | [2] 0 | [3] 0 | [4] 0 | [5] 0 | [6] 0 | [7] 0 | [8] 0 | [9] 0 | [10] 0

Cc1cccc(COc2cccc(/C=C3\C(=O)NN(c4ccccc4)C3=O)c2)c1 (10 µM)
inactive: [1] 0 | [2] 0 | [3] 0 | [4] 0 | [5] 0 | [6] 0 | [7] 0 | [8] 0 | [9] 0 | [10] 0

The list continues:

CCC(=O)Nc1cccc(Oc2nc(Nc3ccc(N4CCN(C)CC4)cc3OC)ncc2Cl)c1 (10 µM)
inactive: [1] 0 | [2] 0 | [3] 0 | [4] 0 | [5] 0 | [6] 0 | [7] 0 | [8] 0 | [9] 0 | [10] 0
